# From US9684238B2, “Fluorene-type compound, photopolymerization initiator comprising said fluorene-type compound, and photosensitive composition containing said photopolymerization initiator” (TOKYO OHKA KOGYO CO., LTD., priority 2012, dated 2017)
# Columns and labels:
# [1] = Evaluation 3: residue, black photosensitive composition; parameters: key: Absent: The case where the residue of the coating film in the unexposed portion was absent was evaluated as absent
# [2] = Evaluation 3: peeling of pattern, black photosensitive composition; parameters: key: Good: The case where the external appearance did not change and the peeling of the cured film did not occur was evaluated as good
# [3] = Evaluation 3: straightness of pattern, black photosensitive composition; parameters: key: Good: The case where a good linear pattern was formed was evaluated as good; Bad: the case where the distortion of the pattern image or unevenness at an end portion thereof was observed was evaluated as bad
# [4] = 10 mJ/cm^2, unexposed portion after development
# [5] = 20 mJ/cm^2, unexposed portion after development
# [6] = 40 mJ/cm^2, unexposed portion after development
# [7] = 60 mJ/cm^2, unexposed portion after development
# [8] = 80 mJ/cm^2, unexposed portion after development
# [9] = 20 mJ/cm^2, development in 0.1% TMAH
# [10] = 40 mJ/cm^2, development in 0.1% TMAH
# [11] = 60 mJ/cm^2, development in 0.1% TMAH
# [12] = 80 mJ/cm^2, development in 0.1% TMAH
# [13] = 10 mJ/cm^2, development in 0.1% TMAH
Structure (SMILES),"Residue [1, 4]","Residue [1, 5]","Residue [1, 6]","Residue [1, 7]","Residue [1, 8]","Peeling [2, 9]","Peeling [2, 10]","Peeling [2, 11]","Peeling [2, 12]",Straightness ([3]; 10 mJ/cm^2),Straightness ([3]; 20 mJ/cm^2),Straightness ([3]; 40 mJ/cm^2),Straightness ([3]; 60 mJ/cm^2),Straightness ([3]; 80 mJ/cm^2),"Peeling [2, 13]"
CCCCCCC1(CCCCCC)c2cc(C(=O)c3ccccc3C)ccc2-c2ccc(C(C)=NOC(C)=O)cc21 [Compound 6],Absent,Absent,Absent,Absent,Absent,Good,Good,Good,Good,Bad,Good,Good,Good,Good,
CCCCCCC1(CCCCCC)c2cc(C(=NOC(C)=O)c3ccccc3C)ccc2-c2ccc([N+](=O)[O-])cc21 [Compound 2],Absent,Absent,Absent,Absent,Absent,Good,Good,Good,Good,Good,Good,Good,Good,Good,Good
CCCC1(CCC)c2cc(C(=O)/C(C)=N/OC(C)=O)ccc2-c2ccc(C(=O)c3ccc([N+](=O)[O-])cc3)cc21 [Compound D-9],Absent,Absent,Absent,Absent,Absent,Good,Good,Good,Good,Good,Good,Good,Good,Good,Good
CCCC1(CCC)c2cc(C(=NOC(C)=O)c3ccccc3C)ccc2-c2ccc([N+](=O)[O-])cc21 [Compound 1],Absent,Absent,Absent,Absent,Absent,Good,Good,Good,Good,Good,Good,Good,Good,Good,Good
CCCC1(CCC)c2cc(C(=O)C(CCSc3ccc(Cl)cc3)=NOC(C)=O)ccc2-c2ccc([N+](=O)[O-])cc21 [Compound D-15],Absent,Absent,Absent,Absent,Absent,Good,Good,Good,Good,Good,Good,Good,Good,Good,Good
CCCC1(CCC)c2cc(C(CCCSc3ccc(Cl)cc3)=NOC(C)=O)ccc2-c2ccc([N+](=O)[O-])cc21 [Compound D-14],Absent,Absent,Absent,Absent,Absent,Good,Good,Good,Good,Good,Good,Good,Good,Good,Good
CCCC1(CCC)c2cc(C(C)=NOC(C)=O)ccc2-c2ccc([N+](=O)[O-])cc21 [Compound D-3],Absent,Absent,Absent,Absent,Absent,Good,Good,Good,Good,Good,Good,Good,Good,Good,Good
CCCC1(CCC)c2cc(C(=O)c3ccc([N+](=O)[O-])cc3)ccc2-c2ccc(C(=NOC(C)=O)C(C)C)cc21 (mixture of isomers) [Compound D-8],Absent,Absent,Absent,Absent,Absent,Good,Good,Good,Good,Good,Good,Good,Good,Good,Good
CCCC1(CCC)c2cc(C(CCCCl)=NOC(C)=O)ccc2-c2ccc([N+](=O)[O-])cc21 [Compound D-12],Absent,Absent,Absent,Absent,Absent,Good,Good,Good,Good,Good,Good,Good,Good,Good,Good
CCCC1(CCC)c2cc(C(=NOC(C)=O)c3ccccc3)ccc2-c2ccc([N+](=O)[O-])cc21 [Compound D-1],Absent,Absent,Absent,Absent,Absent,Good,Good,Good,Good,Good,Good,Good,Good,Good,Good
"CCn1c2ccc(C(=O)c3ccccc3C)cc2c2cc(/C(C)=N/OC(C)=O)ccc21 [Compound C-1, reference compound]",Absent,Absent,Absent,Absent,Absent,Good,Good,Good,Good,Bad,Good,Good,Good,Good,
CCCC1(CCC)c2cc(C(=O)c3ccccc3C)ccc2-c2ccc(/C(C)=N/OC(C)=O)cc21 [Compound 4],Absent,Absent,Absent,Absent,Absent,Good,Good,Good,Good,Bad,Good,Good,Good,Good,
CCCCCCC1(CCCCCC)c2cc(C(=O)c3ccc(F)cc3)ccc2-c2ccc(/C(CC(C)N(OC(C)=O)C(C)=O)=N\OC(C)=O)cc21 (stereo not shown) [Compound 9],Absent,Absent,Absent,Absent,Absent,Good,Good,Good,Good,Bad,Good,Good,Good,Good,
CCCC1(CCC)c2cc(C(=NOC(C)=O)c3ccc(C(C)(C)C)cc3)ccc2-c2ccc([N+](=O)[O-])cc21 [Compound D-2],Absent,Absent,Absent,Absent,Absent,Good,Good,Good,Good,Good,Good,Good,Good,Good,Good
CCCCCCC1(CCCCCC)c2cc(C(=O)c3ccccc3)ccc2-c2ccc(C(C)=NOC(C)=O)cc21 [Compound 8],Absent,Absent,Absent,Absent,Absent,Good,Good,Good,Good,Bad,Good,Good,Good,Good,
